Results from article PMC4552634, “A New Set of Chemical Starting Points with Plasmodium falciparum Transmission-Blocking Potential for Antimalarial Drug Discovery” (PLoS ONE, 2015).

Test system: HepG2 cells
Test: Cytotoxicity in HepG2 cells (intracellular ATP, ATPlite, 48 h)
Assay type: cell-based, human
Details: selectivity ratio HepG2 vs Pf gametocytes

Structure (SMILES)	Ratio IC50 HepG2/IC50 Pf gametocytes
Cn1nc(C(F)(F)F)c(-c2ccc(Br)cc2)c1NC(=O)Cc1ccccc1F [TCMDC-123792]	>14
COc1cc2nc(N3CCN(c4nc(N)c5cc(OC)c(OC)cc5n4)CC3)nc(N)c2cc1OC [TCMDC-123865]	>96
O=C(Nc1nc(-c2ccccn2)cc2ccccc12)c1cccc(Cl)c1 [TCMDC-123886]	>50
C=CCN(C(=O)c1ccc(Cl)c([N+](=O)[O-])c1)c1nc(-c2ccccc2)cs1 [TCMDC-124436]	>237
Cc1cc(Nc2ccncc2)n2nc(C)c(-c3ccc(Cl)cc3)c2n1 [TCMDC-124478]	>55
Cc1sc2ncnc(Sc3nnc(N)s3)c2c1C [TCMDC-124542]	>83
Cc1ccc(C)c(CC(=O)N2CCC(n3c(C)nc4ccc(F)cc43)CC2)c1 [TCMDC-124790]	>27
COc1cccc(CC(=O)N2CCC(n3c(C)nc4ccc(C)cc43)CC2)c1 [TCMDC-124791]	>53
O=C(c1ccc([N+](=O)[O-])o1)N1CCC(Cc2ccc(C(F)(F)F)cc2)CC1 [TCMDC-124805]	55
CCc1nn2c(Nc3ccncc3)cc(C)nc2c1-c1ccccc1 [TCMDC-124917]	>13
Cc1cc(Nc2ccncc2)n2nc(C)c(-c3ccccc3Cl)c2n1 [TCMDC-124918]	>13
CCOc1ccc2nc3cc(NC(=O)c4ccco4)ccc3c(N)c2c1 [TCMDC-125004]	56
Cc1[nH]c2ccccc2c1C(=O)C(C)Sc1nnc(-c2ccccc2Br)[nH]1 (centres unmarked) [TCMDC-125114]	74
COc1cccc(NC(=O)[C@H](C(C)C)n2c(=O)[nH]c3ccccc3c2=O)c1 [TCMDC-125133]	>93
COc1ccc(NC(=O)C2c3ccccc3C(=O)N(CC(C)C)C2c2cccs2)cc1OC (centres unmarked) [TCMDC-125289]	>58
CC(C)c1ccc(NC(=S)NN=Cc2ccccn2)cc1 [TCMDC-125520]	>1306
Fc1ccc(NC(=S)NN=Cc2ccccn2)cc1 [TCMDC-125521]	195
c1ccc2sc(Sc3ncnc4sccc34)nc2c1 [TCMDC-125539]	>50
CCC1=C(C[C@H]2NCCc3cc(OC)c(OC)cc32)C[C@H]2c3cc(OC)c(OC)cc3CCN2C1 [TCMDC-131825]	>83
COc1cc2c(c(Cl)c1OC)CCN(C(=O)C(F)(F)F)CC2c1ccccc1 (centres unmarked) [TCMDC-132071]	>13
c1cc(CNCCN2CCNCC2)cc(-c2cccc(-c3nc4ccccc4[nH]3)c2)c1 [TCMDC-132859]	27
Fc1ccc2[nH]c(-c3cccc(-c4cccc(CNCCN5CCNCC5)c4)c3)nc2c1 [TCMDC-132860]	27
Fc1ccc2[nH]c(-c3cccc(-c4ccc(CNCCN5CCNCC5)cc4)c3)nc2c1 [TCMDC-132863]	17
FC(F)(F)c1ccc2[nH]c(-c3ccc(-c4cccc(CNCCN5CCNCC5)c4)cc3)nc2c1 [TCMDC-132864]	16

Structure (SMILES)	Ratio IC50 HepG2/IC50 Pf gametocytes
Cc1cccc2nc(-c3ccc(-c4cccc(CNCCN5CCNCC5)c4)cc3)[nH]c12 [TCMDC-132867]	16
Fc1ccc2[nH]c(-c3ccc(-c4ccc(CNCCN5CCNCC5)cc4)s3)nc2c1 [TCMDC-132869]	>47
FC(F)(F)c1ccc2[nH]c(-c3cccc(-c4ccc(CNCCN5CCNCC5)cc4)c3)nc2c1 [TCMDC-132872]	15
NC1CCN(Cc2ccc(-c3ccc(-c4nc5cc(F)ccc5[nH]4)cc3)cc2)C1 (centres unmarked) [TCMDC-133872]	9
c1cc(CN2CCC(CCN3CCCCC3)CC2)cc(-c2cccc(-c3nc4ccccc4[nH]3)c2)c1 [TCMDC-133920]	45
Cc1n[nH]c2ccc(-c3ccc4nccc(N5CCC(N)CC5)c4c3)cc12 [TCMDC-134315]	30
CC(C)(C)c1ccc(CN2CCC(CNC(=O)c3cc(-c4cccc(Cl)c4)cs3)C2)cc1 (centres unmarked) [TCMDC-134446]	19
COc1cccc(Nc2c(C(N)=O)cnc3ccc(-c4ccc([S+](C)[O-])cc4)cc23)c1 (centres unmarked) [TCMDC-135184]	>18
CS(=O)(=O)c1cccc(-c2cnc3[nH]cc(-c4cccc(CCN)c4)c3c2)c1 [TCMDC-136307]	>53
CCn1ncc2c(NC3CCOCC3)c(CNC(=O)c3ccnn3C)c(C)nc21 [TCMDC-136560]	>15
COc1ccc(Nc2nccc(-c3ccc4ccnc(NCCCCN)c4c3)n2)cc1 [TCMDC-136642]	>77
CN(C)CCNC(=O)c1ccc(-c2cnc3ccc(NCc4ccc(Cl)c(Cl)c4)nn23)cc1 [TCMDC-136678]	50
C/C=C/C=C/C1=NCCc2cc(OCCC)ccc21 [TCMDC-137442]	25
N=C(NCCCc1ccccc1)c1cccc(C(=N)NCCCc2ccccc2)n1 [TCMDC-137453]	41
COc1ccc2nc3cc(Cl)ccc3c(NCCN3CCN(C)CC3)c2c1 [TCMDC-137476]	10
CCCCN1CCN(CCCCNc2c3ccccc3nc3ccccc23)CC1 [TCMDC-137569]	11
CC1CCCCN1CCCNc1nc(NCc2ccccc2)c2ccccc2n1 (centres unmarked) [TCMDC-137771]	143
CC(=NNC(=S)NCCc1ccccn1)c1ccccn1 [TCMDC-137895]	>17
COCCCNC(=S)NN=C(C)c1ccccn1 [TCMDC-137907]	106
CCN(CC)Cc1cc(Nc2c3ccc(Cl)cc3nc3cccc(OC)c23)ccc1O [TCMDC-139222]	>25
COc1ccc(COc2cc(NCCCN)nc3ccccc23)cc1 [TCMDC-139286]	25
O=c1c(Br)ccccc1Br [TCMDC-142246]	61
Nc1cc(C=Cc2ccc([N+](=O)[O-])o2)nc2ccccc12 [TCMDC-142295]	58
